Experiment [1] addresses T1, CML14, yeast two-hybrid bait (pGBKT7-CML14) (Arabidopsis thaliana) (UniProt Q8VZ50).
T1 sequence: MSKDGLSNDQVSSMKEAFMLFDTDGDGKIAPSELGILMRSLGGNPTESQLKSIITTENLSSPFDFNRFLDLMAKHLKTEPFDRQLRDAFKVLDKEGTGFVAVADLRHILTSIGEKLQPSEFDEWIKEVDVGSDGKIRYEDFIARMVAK
Nature of the experiment: two-hybrid.

Amino acid sequences for entries named in this document (tags omitted). A change or cut given only in a name is not applied to a line headed by its entry.
UniProt Q94AZ4: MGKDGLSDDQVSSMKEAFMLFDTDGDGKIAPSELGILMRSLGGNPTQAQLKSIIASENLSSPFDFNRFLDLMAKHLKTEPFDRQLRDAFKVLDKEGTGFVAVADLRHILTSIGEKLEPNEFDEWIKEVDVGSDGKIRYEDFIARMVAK
UniProt Q9FYG2: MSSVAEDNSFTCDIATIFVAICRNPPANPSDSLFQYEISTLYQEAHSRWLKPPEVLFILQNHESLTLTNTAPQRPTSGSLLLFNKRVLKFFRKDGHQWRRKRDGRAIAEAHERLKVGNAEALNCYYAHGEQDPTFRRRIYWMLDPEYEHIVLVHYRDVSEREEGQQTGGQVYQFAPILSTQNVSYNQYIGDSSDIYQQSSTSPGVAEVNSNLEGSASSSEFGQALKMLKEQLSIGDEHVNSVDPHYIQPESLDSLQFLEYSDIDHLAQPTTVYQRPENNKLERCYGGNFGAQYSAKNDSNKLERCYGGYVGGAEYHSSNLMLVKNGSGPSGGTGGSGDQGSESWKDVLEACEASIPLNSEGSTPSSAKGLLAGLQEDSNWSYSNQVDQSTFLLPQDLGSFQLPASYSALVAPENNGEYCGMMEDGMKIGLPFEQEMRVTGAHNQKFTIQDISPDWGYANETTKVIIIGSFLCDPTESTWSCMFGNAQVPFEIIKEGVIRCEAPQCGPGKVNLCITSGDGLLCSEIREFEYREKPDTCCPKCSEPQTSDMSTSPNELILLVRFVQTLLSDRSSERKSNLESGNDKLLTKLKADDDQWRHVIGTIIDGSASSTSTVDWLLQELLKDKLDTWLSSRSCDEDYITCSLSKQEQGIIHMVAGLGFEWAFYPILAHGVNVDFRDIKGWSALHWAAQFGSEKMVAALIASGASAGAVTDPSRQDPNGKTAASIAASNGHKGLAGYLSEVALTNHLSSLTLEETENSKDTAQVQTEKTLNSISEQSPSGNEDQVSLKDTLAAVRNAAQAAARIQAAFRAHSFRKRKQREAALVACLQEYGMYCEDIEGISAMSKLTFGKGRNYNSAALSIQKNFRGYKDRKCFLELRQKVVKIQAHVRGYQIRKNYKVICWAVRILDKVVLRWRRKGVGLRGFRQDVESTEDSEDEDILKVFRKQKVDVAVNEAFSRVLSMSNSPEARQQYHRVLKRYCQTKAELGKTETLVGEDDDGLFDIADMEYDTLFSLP
UniProt Q8LPG9: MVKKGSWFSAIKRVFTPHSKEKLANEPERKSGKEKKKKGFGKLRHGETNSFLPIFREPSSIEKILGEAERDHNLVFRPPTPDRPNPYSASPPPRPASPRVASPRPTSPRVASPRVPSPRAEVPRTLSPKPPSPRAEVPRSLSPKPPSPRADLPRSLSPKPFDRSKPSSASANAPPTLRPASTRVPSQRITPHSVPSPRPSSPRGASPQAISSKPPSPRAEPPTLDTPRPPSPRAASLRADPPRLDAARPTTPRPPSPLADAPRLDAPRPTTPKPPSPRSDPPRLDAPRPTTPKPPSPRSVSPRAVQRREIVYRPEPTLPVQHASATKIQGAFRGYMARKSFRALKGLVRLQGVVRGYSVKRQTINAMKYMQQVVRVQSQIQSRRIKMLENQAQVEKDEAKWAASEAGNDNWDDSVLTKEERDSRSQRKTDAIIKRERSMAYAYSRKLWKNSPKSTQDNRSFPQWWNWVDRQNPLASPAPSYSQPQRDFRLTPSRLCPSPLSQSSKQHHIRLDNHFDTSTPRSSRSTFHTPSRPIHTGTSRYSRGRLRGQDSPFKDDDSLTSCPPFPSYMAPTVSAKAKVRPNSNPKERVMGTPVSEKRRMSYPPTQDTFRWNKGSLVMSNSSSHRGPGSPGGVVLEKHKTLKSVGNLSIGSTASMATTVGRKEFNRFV
UniProt F4JIU4: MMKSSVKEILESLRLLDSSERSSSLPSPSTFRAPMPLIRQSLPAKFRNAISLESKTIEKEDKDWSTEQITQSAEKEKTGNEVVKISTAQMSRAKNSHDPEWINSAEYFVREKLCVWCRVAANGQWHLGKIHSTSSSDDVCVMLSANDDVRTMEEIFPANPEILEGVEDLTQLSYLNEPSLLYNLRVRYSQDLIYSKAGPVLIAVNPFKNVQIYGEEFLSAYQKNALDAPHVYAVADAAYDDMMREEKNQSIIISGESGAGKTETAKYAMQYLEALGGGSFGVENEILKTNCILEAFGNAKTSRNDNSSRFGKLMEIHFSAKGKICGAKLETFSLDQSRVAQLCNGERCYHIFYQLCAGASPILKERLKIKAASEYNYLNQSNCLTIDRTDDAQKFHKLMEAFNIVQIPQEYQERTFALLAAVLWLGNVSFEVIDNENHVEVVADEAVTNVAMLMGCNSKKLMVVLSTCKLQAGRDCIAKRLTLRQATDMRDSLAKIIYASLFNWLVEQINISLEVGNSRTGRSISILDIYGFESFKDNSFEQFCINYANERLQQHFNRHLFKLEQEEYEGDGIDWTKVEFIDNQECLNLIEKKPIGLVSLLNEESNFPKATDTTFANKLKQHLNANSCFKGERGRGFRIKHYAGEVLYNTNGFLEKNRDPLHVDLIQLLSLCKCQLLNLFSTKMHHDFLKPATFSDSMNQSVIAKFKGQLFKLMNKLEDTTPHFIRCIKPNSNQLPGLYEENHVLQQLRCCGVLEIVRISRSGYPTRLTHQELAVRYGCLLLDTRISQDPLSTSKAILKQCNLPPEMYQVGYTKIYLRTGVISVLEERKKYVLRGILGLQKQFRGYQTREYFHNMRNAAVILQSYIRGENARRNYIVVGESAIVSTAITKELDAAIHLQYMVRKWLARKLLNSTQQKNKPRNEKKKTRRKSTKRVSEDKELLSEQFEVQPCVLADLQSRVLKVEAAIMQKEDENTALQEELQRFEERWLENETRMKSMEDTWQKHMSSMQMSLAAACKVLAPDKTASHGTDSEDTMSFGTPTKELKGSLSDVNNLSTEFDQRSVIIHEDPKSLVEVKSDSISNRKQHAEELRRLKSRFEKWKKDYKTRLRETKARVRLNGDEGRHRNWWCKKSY

Experiment [2] has as its target T2, CML13, yeast two-hybrid bait (pGBKT7-CML13) (Arabidopsis thaliana) (UniProt Q94AZ4).
T2 sequence: T1 sequence with S2G, N8D, E47Q, S48A, T55A, T56S, Q117E, S119N
The experiment in a line: two-hybrid.

In experiment [3] the target is T2, CML13, yeast two-hybrid bait (pGBKT7-CML13) (Arabidopsis thaliana). Nature of the experiment: two-hybrid. The source holds these as a separate data set.
The target of experiment [4] is T3, CLuc-CML13 (split-luciferase bait) (Arabidopsis thaliana) (UniProt Q94AZ4).
T3 sequence: T1 sequence with S2G, N8D, E47Q, S48A, T55A, T56S, Q117E, S119N
The experiment in a line: split reporter.

The target in experiment [5] is T4, CLuc-CML14 (split-luciferase bait) (Arabidopsis thaliana) (UniProt Q8VZ50).
T4 sequence: T1 sequence
The experiment in a line: split reporter.

Where a chain is given by its changes, count along the chain named. Where two headings read alike, the source gives them in different places. Results are given in words; binding and its absence hold for the method and conditions named. Binding calls can cover weak binding; strength is not graded here. For some assays here: In cells and extracts the contact can be indirect. For some assays here: Tags and fused reporters may be left off the sequences shown.

With “CAMTA2 (AA# 358-1100), yeast two-hybrid prey (Arabidopsis thaliana) (domain or fragment)”, the binding entry in experiment [1], in experiment [2] and in experiment [3] was “binds” throughout.
Take “NLuc fusion of the IQ-region of CAMTA4 (split-luciferase prey) (from UniProt Q9FYG2) (domain or fragment)”: the binding result in experiment [4] and in experiment [5] was “binds” throughout.
Take “NLuc fusion of the IQ-region of IQD14 (split-luciferase prey) (from UniProt Q8LPG9) (domain or fragment)”: the binding entry in experiment [4] and in experiment [5] was “binds” throughout.
As for “NLuc fusion of the IQ-region of myosin VIII-B (split-luciferase prey) (from UniProt F4JIU4) (domain or fragment)”, the binding entry in experiment [4] and in experiment [5] was “binds” throughout.
Consider “NLuc fusion of the single-IQ domain of IQM1 (split-luciferase prey) (Arabidopsis thaliana) (domain or fragment)”, for which the binding entry in experiment [4] and in experiment [5] was “binds weakly” throughout.

These data come from doi:10.1101/2023.03.09.531943.
